Reference: patent US11584749B2, “Phosphor-tetrazine compound and use thereof” (Spark Biopharma, Inc., priority 2018, dated 2023)
Values joined by “and” are separate entries in the source; they are usually repeats but may differ in a detail not shown here. Equal values may be shown once. Some entries share one result that the patent states for a list of compounds. Each block holds one compound with its values, some of them ahead of it.

Experiments:
[1] = Change in emission properties (quantum yield, excitation/emission maxima, fluorescence amplification) before and after reaction with TCO; type: physicochemical; settings: summary of Table 1
Procedure: In this test, the absorption spectrum was measured with a UV-VIS spectrophotometer UV-1650PC (Shimadzu), and the emission spectrum and motion data were measured using a Cary Eclipse Fluorescence spectrophotometer (Varian Associates), and the absolute quantum yield was measured with a QE-2000 (Otsuka Electronics).
The emission spectrum was compared when the maximum fluorescence intensity was reached before and after the reaction of the compound and TCO, and changes in fluorescence of the compounds of Examples 1 to 4 and Comparative Examples 1 to 4 were observed, and the results are shown in Table 1 below.
The emission spectrum was compared when the maximum fluorescence intensity was reached before and after the reaction of the compound and TCO, and changes in fluorescence of the compounds of Examples 1 and 4 and Comparative Examples 3 to 6 were observed, and the results are shown in Table 2 below, FIGS. 3 and 4.

[2] = Change in absorption spectrum before and after reaction with TCO (UV-VIS spectrophotometer); type: physicochemical; settings: FIG. 1 and 2

SMILES: CC(=O)c1ccn2c3c(c(-c4ccc(C(=O)NCc5ccc(-c6nnc(C)nn6)cc5)cc4)c2c1)CN(CCCNC(=O)OC(C)(C)C)C3=O [Comparative Example 2, tert-butyl (3-(7-acetyl-9-(4-((4-(6-methyl-1,2,4,5-tetrazin-3-yl)benzyl)carbamoyl)phenyl)-3-oxo-1,3-dihydro-2H-pyrrolo[3,4-b]indolizin-2-yl)propyl)carbamate]
quantum yield before the reaction with TCO [1]: at most 4%
change of absorption peaks after the TCO treatment [2]: the absorption peak around 500-550 nm due to the absorption of tetrazine disappeared
absorption peaks before the TCO treatment [2]: 400-420 nm and 500-550 nm

SMILES: CC(=O)c1ccn2c3c(c(-c4ccccc4)c2c1)CN(CCCNC(=O)CCC(=O)NCc1ccc(-c2nnc(C)nn2)cc1)C3=O [Comparative Example 4, N^1-(3-(7-acetyl-3-oxo-9-phenyl-1,3-dihydro-2H-pyrrolo[3,4-b]indolizin-2-yl)propyl)-N^4-(4-(6-methyl-1,2,4,5-tetrazin-3-yl)benzyl)succinimide]
quantum yield before the reaction with TCO [1]: at most 4%
change of absorption peaks after the TCO treatment [2]: the absorption peak around 500-550 nm due to the absorption of tetrazine disappeared
absorption peaks before the TCO treatment [2]: 400-420 nm and 500-550 nm

SMILES: Cc1nnc(-c2ccc(CNC(=O)c3ccn4c5c(c(-c6ccccc6)c4c3)CN(CCCNC(=O)OC(C)(C)C)C5=O)cc2)nn1 [Comparative Example 3, tert-butyl (3-(7-((4-(6-methyl-1,2,4,5-tetrazin-3-yl)benzyl)carbamoyl)-3-oxo-9-phenyl-1,3-dihydro-2H-pyrrolo[3,4-b]indolizin-2-yl)propyl)carbamate]
quantum yield before the reaction with TCO [1]: at most 4%
change of absorption peaks after the TCO treatment [2]: the absorption peak around 500-550 nm due to the absorption of tetrazine disappeared
absorption peaks before the TCO treatment [2]: 400-420 nm and 500-550 nm

SMILES: Cc1nnc(-c2ccn3c4c(c(-c5ccccc5)c3c2)CN(CCCNC(=O)OC(C)(C)C)C4=O)nn1 [Example 1, tert-butyl (3-(7-(6-methyl-1,2,4,5-tetrazin-3-yl)-3-oxo-9-phenyl-1,3-dihydro-2H-pyrrolo[3,4-b]indolizin-2-yl)propyl)carbamate]
change of absorption peaks after the TCO treatment [2]: shifted from 415 nm to 386 nm

SMILES: CC(=O)c1ccn2c3c(c(-c4ccc(-c5nnc(C)nn5)cc4)c2c1)CN(CCCNC(=O)OC(C)(C)C)C3=O [Comparative Example 1, tert-butyl (3-(7-acetyl-9-(4-(6-methyl-1,2,4,5-tetrazin-3-yl)phenyl)-3-oxo-1,3-dihydro-2H-pyrrolo[3,4-b]indolizin-2-yl)propyl)carbamate]
quantum yield before the reaction with TCO [1]: at most 4%
change of absorption peaks after the TCO treatment [2]: the absorption peak around 500-550 nm due to the absorption of tetrazine disappeared
absorption peaks before the TCO treatment [2]: 400-420 nm and 500-550 nm

The next lines start with the values.

change of absorption peaks after the TCO treatment [2]: shifted from 415 nm to 386 nm
SMILES: CCN(CC)c1ccc(-c2c3c(n4ccc(-c5nnc(C)nn5)cc24)C(=O)N(CCCNC(=O)OC(C)(C)C)C3)cc1 [Example 4, tert-butyl (3-(9-(4-(diethylamino)phenyl)-7-(6-methyl-1,2,4,5-tetrazin-3-yl)-3-oxo-1,3-dihydro-2H-pyrrolo[3,4-b]indolizin-2-yl)propyl)carbamate]

change of absorption peaks after the TCO treatment [2]: shifted from 415 nm to 386 nm
SMILES: Cc1nnc(-c2ccn3c4c(c(-c5ccc(N)cc5)c3c2)CN(CCCNC(=O)OC(C)(C)C)C4=O)nn1 [Example 3, tert-butyl (3-(9-(4-aminophenyl)-7-(6-methyl-1,2,4,5-tetrazin-3-yl)-3-oxo-1,3-dihydro-2H-pyrrolo[3,4-b]indolizin-2-yl)propyl)carbamate]

change of absorption peaks after the TCO treatment [2]: shifted from 415 nm to 386 nm
SMILES: COc1ccc(-c2c3c(n4ccc(-c5nnc(C)nn5)cc24)C(=O)N(CCCNC(=O)OC(C)(C)C)C3)cc1 [Example 2, tert-butyl (3-(9-(4-methoxyphenyl)-7-(6-methyl-1,2,4,5-tetrazin-3-yl)-3-oxo-1,3-dihydro-2H-pyrrolo[3,4-b]indolizin-2-yl)propyl)carbamate]
